These are yes or no findings as the source states them, for the method shown. In cells and extracts the contact can be indirect. Some results given as binding are weak or reduced against the parent protein; the word gives no strength. For some assays here: Tags and fused reporters may be left off the sequences shown.
How the values were obtained:
[1] = molecular target: T1, tetraspanin CD37 (human (endogenous in BJAB)) (UniProt P11049); assay: proximity ligation; in situ PLA with FATP1 and CD37 antibodies on fixed WT BJAB lymphoma cells; isotype controls and CD37KO BJAB cells as negative controls
T1 sequence: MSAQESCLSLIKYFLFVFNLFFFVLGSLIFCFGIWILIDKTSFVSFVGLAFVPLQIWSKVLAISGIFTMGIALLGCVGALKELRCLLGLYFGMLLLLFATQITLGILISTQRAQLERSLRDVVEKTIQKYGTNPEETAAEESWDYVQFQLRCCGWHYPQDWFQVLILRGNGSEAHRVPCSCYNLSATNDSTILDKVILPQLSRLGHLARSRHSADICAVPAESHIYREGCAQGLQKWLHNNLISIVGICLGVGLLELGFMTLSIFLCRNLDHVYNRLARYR

Amino acid sequences for entries named in this document (tags omitted).
UniProt Q6PCB7: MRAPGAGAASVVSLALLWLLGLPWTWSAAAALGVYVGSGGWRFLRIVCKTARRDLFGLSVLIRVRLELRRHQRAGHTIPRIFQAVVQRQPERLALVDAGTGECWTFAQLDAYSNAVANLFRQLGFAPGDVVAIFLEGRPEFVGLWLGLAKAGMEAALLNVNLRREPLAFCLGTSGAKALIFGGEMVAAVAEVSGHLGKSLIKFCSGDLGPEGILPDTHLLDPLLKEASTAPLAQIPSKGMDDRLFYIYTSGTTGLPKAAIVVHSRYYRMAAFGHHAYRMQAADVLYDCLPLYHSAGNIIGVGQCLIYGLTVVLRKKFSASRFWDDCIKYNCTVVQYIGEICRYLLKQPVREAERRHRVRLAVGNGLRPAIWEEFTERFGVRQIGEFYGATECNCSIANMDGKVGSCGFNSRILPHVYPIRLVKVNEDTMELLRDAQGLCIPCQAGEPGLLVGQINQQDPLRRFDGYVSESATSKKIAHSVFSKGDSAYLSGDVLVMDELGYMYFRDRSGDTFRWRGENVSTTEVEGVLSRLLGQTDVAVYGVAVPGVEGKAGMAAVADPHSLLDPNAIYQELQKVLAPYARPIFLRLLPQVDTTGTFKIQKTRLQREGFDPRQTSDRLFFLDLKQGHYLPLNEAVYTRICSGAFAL

alpha-tag-CD37 (human) = molecular target: T2, alpha-tag-CD37 (human) (UniProt P11049); assay: co-IP; CD37KO BJAB cells co-transfected with FLAG-FATP1 and alpha-tag-CD37; lysis in 1% Brij 97, 25 mM Tris-HCl pH 7.5, 150 mM NaCl, 2 mM EDTA, 4 °C; pulldown of alpha-tagged CD37 on Alpha Selector beads; blot with anti-FLAG
T2 sequence: T1 sequence

Substance	binding [1]	binding (alpha-tag-CD37 (human))
fatty acid transporter protein 1 (FATP1) (from UniProt Q6PCB7 1-646)	binds	
FLAG-FATP1 (from UniProt Q6PCB7 1-646)		binds

— PMC9470561
